Laboratory results: PubChem BioAssay AID652272 (Drosophila RNAi Screening Center, 2013)

Test: 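Finding fly genes that regulate Hedgehog signal transduction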 (primary screen)
Cells: Drosophila clone 8 (Cl8) cells
Reagents: long dsRNA against Drosophila genes
Measured: 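Firefly light from a Hedgehog-responsive ptc promoter reporter and Renilla reference light, both read on a plate reader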
Direction: firefly Hh reporter signal: higher = more ptc reporter light; Renilla reference signal: higher = more Renilla control light
Call rule: 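Called a hit if the two-replicate mean z-score lies below -2 or above +3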
Meaning of the calls: active = hit: reporter lowered or raised; inactive = not a hit
The deposit covers about 21,000 reagents; this is a random part of those with a known target gene and a result. Over the whole deposit, 503 (2.4%) are marked active. 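Raw plate light values, not normalised; calls rest on replicate z-scores that were not deposited; hits include reporter decreases as well as increases.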 Entries without a mark were called inactive. No sequences are given here. The record does not give: the amount of reagent, the time to read-out.

Against Mulk [DRSC02658], the entry reads firefly Hh reporter signal, replicate 1 = 38614; firefly Hh reporter signal, replicate 2 = 51794; Renilla reference signal, replicate 1 = 1850; Renilla reference signal, replicate 2 = 2091.
Vps13 [DRSC06817] scored firefly Hh reporter signal, replicate 1 = 77658; firefly Hh reporter signal, replicate 2 = 27824; Renilla reference signal, replicate 1 = 2008; Renilla reference signal, replicate 2 = 2883.
Depletion of Polr2E [DRSC06100] gave: firefly Hh reporter signal, replicate 1 = 75428; firefly Hh reporter signal, replicate 2 = 30752; Renilla reference signal, replicate 1 = 1595; Renilla reference signal, replicate 2 = 1731.
For Cyp6a15Psi [DRSC07377], the values are firefly Hh reporter signal, replicate 1 = 1.00e5; firefly Hh reporter signal, replicate 2 = 47046; Renilla reference signal, replicate 1 = 2411; Renilla reference signal, replicate 2 = 3921.
With knock-down of CR12798 [DRSC21078], the screen gave firefly Hh reporter signal, replicate 1 = 71952; firefly Hh reporter signal, replicate 2 = 1.94e5; Renilla reference signal, replicate 1 = 2210; Renilla reference signal, replicate 2 = 8314.
Against CG34292 [DRSC13807], the values are firefly Hh reporter signal, replicate 1 = 48352; firefly Hh reporter signal, replicate 2 = 2.53e5; Renilla reference signal, replicate 1 = 12631; Renilla reference signal, replicate 2 = 5800.
Silencing of CG5194 [DRSC10492] gave: firefly Hh reporter signal, replicate 1 = 84167; firefly Hh reporter signal, replicate 2 = 74323; Renilla reference signal, replicate 1 = 3380; Renilla reference signal, replicate 2 = 3223.
For CG18273 [DRSC18150] the deposit lists firefly Hh reporter signal, replicate 1 = 1.07e5; firefly Hh reporter signal, replicate 2 = 3.10e5; Renilla reference signal, replicate 1 = 4035; Renilla reference signal, replicate 2 = 13498.
Silencing of CG18273 [DRSC18505] gave: firefly Hh reporter signal, replicate 1 = 1.26e5; firefly Hh reporter signal, replicate 2 = 1.06e5; Renilla reference signal, replicate 1 = 2920; Renilla reference signal, replicate 2 = 3850.
Against CG11456 [DRSC11665] the deposit lists firefly Hh reporter signal, replicate 1 = 66521; firefly Hh reporter signal, replicate 2 = 40998; Renilla reference signal, replicate 1 = 2480; Renilla reference signal, replicate 2 = 1735.
After knock-down of CG11865 [DRSC01872], the record shows firefly Hh reporter signal, replicate 1 = 1.08e5; firefly Hh reporter signal, replicate 2 = 54281; Renilla reference signal, replicate 1 = 2739; Renilla reference signal, replicate 2 = 5264.
For GCS2alpha [DRSC21036], the values are firefly Hh reporter signal, replicate 1 = 67089; firefly Hh reporter signal, replicate 2 = 2.19e5; Renilla reference signal, replicate 1 = 1382; Renilla reference signal, replicate 2 = 9307.
Depletion of Treh [DRSC04548] resulted in: firefly Hh reporter signal, replicate 1 = 82123; firefly Hh reporter signal, replicate 2 = 54396; Renilla reference signal, replicate 1 = 3824; Renilla reference signal, replicate 2 = 2486.
For CG12868 [DRSC06207] the deposit lists firefly Hh reporter signal, replicate 1 = 85894; firefly Hh reporter signal, replicate 2 = 43632; Renilla reference signal, replicate 1 = 2211; Renilla reference signal, replicate 2 = 2743.
CG14856 [DRSC14980] gave firefly Hh reporter signal, replicate 1 = 1.14e5; firefly Hh reporter signal, replicate 2 = 1.25e5; Renilla reference signal, replicate 1 = 4435; Renilla reference signal, replicate 2 = 3395.
Sbp2 [DRSC10766] gave firefly Hh reporter signal, replicate 1 = 84954; firefly Hh reporter signal, replicate 2 = 88471; Renilla reference signal, replicate 1 = 3606; Renilla reference signal, replicate 2 = 3465.
For COX7C [DRSC06831] the deposit lists firefly Hh reporter signal, replicate 1 = 91226; firefly Hh reporter signal, replicate 2 = 5.09e5; firefly Hh reporter signal, replicate 3 = 71274; Renilla reference signal, replicate 1 = 2920; Renilla reference signal, replicate 2 = 26381.
Depletion of inaE [DRSC19376] gave: firefly Hh reporter signal, replicate 1 = 94177; firefly Hh reporter signal, replicate 2 = 1.69e5; Renilla reference signal, replicate 1 = 3395; Renilla reference signal, replicate 2 = 7393.
Knock-down of inaE [DRSC19377] gave: firefly Hh reporter signal, replicate 1 = 1.27e5; firefly Hh reporter signal, replicate 2 = 1.06e5; Renilla reference signal, replicate 1 = 2791; Renilla reference signal, replicate 2 = 2624.
After knock-down of inaE [DRSC19379], the record shows firefly Hh reporter signal, replicate 1 = 1.33e5; firefly Hh reporter signal, replicate 2 = 3.44e5; Renilla reference signal, replicate 1 = 4693; Renilla reference signal, replicate 2 = 13981.
Knock-down of inaE [DRSC19726] gave: firefly Hh reporter signal, replicate 1 = 1.27e5; firefly Hh reporter signal, replicate 2 = 2.95e5; Renilla reference signal, replicate 1 = 4471; Renilla reference signal, replicate 2 = 13104.
